In patent US9284543B2, “Neutral active soluble truncated PH20 polypeptides and uses thereof” (Halozyme, Inc., priority 2008, dated 2016):

Test system: CHO-S cells
Assay: Western blot analysis of PH20 expression in media and cells after transient expression
Assay type: cell-based, Chinese Hamster
Conditions: band at approximately 66 kDa
In short: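 PH20 expression and solubility were judged by anti-PH20 Western blot of non-reduced media and cell fractions, with expression shown by a ~66 kDa band. Samples came from CHO-S cells transiently transfected (GeneJuice) with mutant PH20-HZ24 DNA and cultured 48-72 h. GPI-anchored mutants were cleaved with PI-PLC to release soluble protein.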

B1: SPAM1-FYNA: C-terminally truncated human PH20, precursor 484 aa (SEQ ID NO:16), mature 449 aa (SEQ ID NO:68) (protein, listed as Homo sapiens)
chain 1: MGVLKFKHIFFRSFVKSSGVSQIVFTFLLIPCCLTLNFRAPPVIPNVPFLWAWNAPSEFCLGKFDEPLDMSLFSFIGSPRINATGQGVTIFYVDRLGYYPYIDSITGVTVNGGIPQKISLQDHLDKAKKDITFYMPVDNLGMAVIDWEEWRPTWARNWKPKDVYKNRSIELVQQQNVQLSLTEATEKAKQEFEKAGKDFLVETIKLGKLLRPNHLWGYYLFPDCYNHHYKKPGYNGSCFNVEIKRNDDLSWLWNESTALYPSIYLNTQQSPVAATLYVRNRVREAIRVSKIPDAKSPLPVFAYTRIVFTDQVLKFLSQDELVYTFGETVALGASGIVIWGTLSIMRSMKSCLLLDNYMETILNPYIINVTLAAKMCSQVLCQEQGVCIRKNWNSSDYLHLNPDNFAIQLEKGGKFTVRGKPTLEDLEQFSEKFYCSCYSTLSCKEKADVKDTDAVDVCIADGVCIDAFLKPPMETEEPQIFYNA
chain 2: LNFRAPPVIPNVPFLWAWNAPSEFCLGKFDEPLDMSLFSFIGSPRINATGQGVTIFYVDRLGYYPYIDSITGVTVNGGIPQKISLQDHLDKAKKDITFYMPVDNLGMAVIDWEEWRPTWARNWKPKDVYKNRSIELVQQQNVQLSLTEATEKAKQEFEKAGKDFLVETIKLGKLLRPNHLWGYYLFPDCYNHHYKKPGYNGSCFNVEIKRNDDLSWLWNESTALYPSIYLNTQQSPVAATLYVRNRVREAIRVSKIPDAKSPLPVFAYTRIVFTDQVLKFLSQDELVYTFGETVALGASGIVIWGTLSIMRSMKSCLLLDNYMETILNPYIINVTLAAKMCSQVLCQEQGVCIRKNWNSSDYLHLNPDNFAIQLEKGGKFTVRGKPTLEDLEQFSEKFYCSCYSTLSCKEKADVKDTDAVDVCIADGVCIDAFLKPPMETEEPQIFYNA
modifications: HuPH20 precursor 1-484; Mature HuPH20 36-484
Protein Expression: YES

B2: SPAM1-PQIF: C-terminally truncated human PH20, precursor 481 aa (SEQ ID NO:19), mature 446 aa (SEQ ID NO:71) (protein, listed as Homo sapiens)
chain 1: MGVLKFKHIFFRSFVKSSGVSQIVFTFLLIPCCLTLNFRAPPVIPNVPFLWAWNAPSEFCLGKFDEPLDMSLFSFIGSPRINATGQGVTIFYVDRLGYYPYIDSITGVTVNGGIPQKISLQDHLDKAKKDITFYMPVDNLGMAVIDWEEWRPTWARNWKPKDVYKNRSIELVQQQNVQLSLTEATEKAKQEFEKAGKDFLVETIKLGKLLRPNHLWGYYLFPDCYNHHYKKPGYNGSCFNVEIKRNDDLSWLWNESTALYPSIYLNTQQSPVAATLYVRNRVREAIRVSKIPDAKSPLPVFAYTRIVFTDQVLKFLSQDELVYTFGETVALGASGIVIWGTLSIMRSMKSCLLLDNYMETILNPYIINVTLAAKMCSQVLCQEQGVCIRKNWNSSDYLHLNPDNFAIQLEKGGKFTVRGKPTLEDLEQFSEKFYCSCYSTLSCKEKADVKDTDAVDVCIADGVCIDAFLKPPMETEEPQIF
chain 2: LNFRAPPVIPNVPFLWAWNAPSEFCLGKFDEPLDMSLFSFIGSPRINATGQGVTIFYVDRLGYYPYIDSITGVTVNGGIPQKISLQDHLDKAKKDITFYMPVDNLGMAVIDWEEWRPTWARNWKPKDVYKNRSIELVQQQNVQLSLTEATEKAKQEFEKAGKDFLVETIKLGKLLRPNHLWGYYLFPDCYNHHYKKPGYNGSCFNVEIKRNDDLSWLWNESTALYPSIYLNTQQSPVAATLYVRNRVREAIRVSKIPDAKSPLPVFAYTRIVFTDQVLKFLSQDELVYTFGETVALGASGIVIWGTLSIMRSMKSCLLLDNYMETILNPYIINVTLAAKMCSQVLCQEQGVCIRKNWNSSDYLHLNPDNFAIQLEKGGKFTVRGKPTLEDLEQFSEKFYCSCYSTLSCKEKADVKDTDAVDVCIADGVCIDAFLKPPMETEEPQIF
modifications: HuPH20 precursor 1-481; Mature HuPH20 36-481
Protein Expression: YES

B3: SPAM1-EPQI: C-terminally truncated human PH20, precursor 480 aa (SEQ ID NO:20), mature 445 aa (SEQ ID NO:72) (protein, listed as Homo sapiens)
chain 1: MGVLKFKHIFFRSFVKSSGVSQIVFTFLLIPCCLTLNFRAPPVIPNVPFLWAWNAPSEFCLGKFDEPLDMSLFSFIGSPRINATGQGVTIFYVDRLGYYPYIDSITGVTVNGGIPQKISLQDHLDKAKKDITFYMPVDNLGMAVIDWEEWRPTWARNWKPKDVYKNRSIELVQQQNVQLSLTEATEKAKQEFEKAGKDFLVETIKLGKLLRPNHLWGYYLFPDCYNHHYKKPGYNGSCFNVEIKRNDDLSWLWNESTALYPSIYLNTQQSPVAATLYVRNRVREAIRVSKIPDAKSPLPVFAYTRIVFTDQVLKFLSQDELVYTFGETVALGASGIVIWGTLSIMRSMKSCLLLDNYMETILNPYIINVTLAAKMCSQVLCQEQGVCIRKNWNSSDYLHLNPDNFAIQLEKGGKFTVRGKPTLEDLEQFSEKFYCSCYSTLSCKEKADVKDTDAVDVCIADGVCIDAFLKPPMETEEPQI
chain 2: LNFRAPPVIPNVPFLWAWNAPSEFCLGKFDEPLDMSLFSFIGSPRINATGQGVTIFYVDRLGYYPYIDSITGVTVNGGIPQKISLQDHLDKAKKDITFYMPVDNLGMAVIDWEEWRPTWARNWKPKDVYKNRSIELVQQQNVQLSLTEATEKAKQEFEKAGKDFLVETIKLGKLLRPNHLWGYYLFPDCYNHHYKKPGYNGSCFNVEIKRNDDLSWLWNESTALYPSIYLNTQQSPVAATLYVRNRVREAIRVSKIPDAKSPLPVFAYTRIVFTDQVLKFLSQDELVYTFGETVALGASGIVIWGTLSIMRSMKSCLLLDNYMETILNPYIINVTLAAKMCSQVLCQEQGVCIRKNWNSSDYLHLNPDNFAIQLEKGGKFTVRGKPTLEDLEQFSEKFYCSCYSTLSCKEKADVKDTDAVDVCIADGVCIDAFLKPPMETEEPQI
modifications: HuPH20 precursor 1-480; Mature HuPH20 36-480
Protein Expression: YES

B4: SPAM1-IFYN: C-terminally truncated human PH20, precursor 483 aa (SEQ ID NO:17), mature 448 aa (SEQ ID NO:69) (protein, listed as Homo sapiens)
chain 1: MGVLKFKHIFFRSFVKSSGVSQIVFTFLLIPCCLTLNFRAPPVIPNVPFLWAWNAPSEFCLGKFDEPLDMSLFSFIGSPRINATGQGVTIFYVDRLGYYPYIDSITGVTVNGGIPQKISLQDHLDKAKKDITFYMPVDNLGMAVIDWEEWRPTWARNWKPKDVYKNRSIELVQQQNVQLSLTEATEKAKQEFEKAGKDFLVETIKLGKLLRPNHLWGYYLFPDCYNHHYKKPGYNGSCFNVEIKRNDDLSWLWNESTALYPSIYLNTQQSPVAATLYVRNRVREAIRVSKIPDAKSPLPVFAYTRIVFTDQVLKFLSQDELVYTFGETVALGASGIVIWGTLSIMRSMKSCLLLDNYMETILNPYIINVTLAAKMCSQVLCQEQGVCIRKNWNSSDYLHLNPDNFAIQLEKGGKFTVRGKPTLEDLEQFSEKFYCSCYSTLSCKEKADVKDTDAVDVCIADGVCIDAFLKPPMETEEPQIFYN
chain 2: LNFRAPPVIPNVPFLWAWNAPSEFCLGKFDEPLDMSLFSFIGSPRINATGQGVTIFYVDRLGYYPYIDSITGVTVNGGIPQKISLQDHLDKAKKDITFYMPVDNLGMAVIDWEEWRPTWARNWKPKDVYKNRSIELVQQQNVQLSLTEATEKAKQEFEKAGKDFLVETIKLGKLLRPNHLWGYYLFPDCYNHHYKKPGYNGSCFNVEIKRNDDLSWLWNESTALYPSIYLNTQQSPVAATLYVRNRVREAIRVSKIPDAKSPLPVFAYTRIVFTDQVLKFLSQDELVYTFGETVALGASGIVIWGTLSIMRSMKSCLLLDNYMETILNPYIINVTLAAKMCSQVLCQEQGVCIRKNWNSSDYLHLNPDNFAIQLEKGGKFTVRGKPTLEDLEQFSEKFYCSCYSTLSCKEKADVKDTDAVDVCIADGVCIDAFLKPPMETEEPQIFYN
modifications: HuPH20 precursor 1-483; Mature HuPH20 36-483
Protein Expression: YES

B5: SPAM1-QIFY: C-terminally truncated human PH20, precursor 482 aa (SEQ ID NO:18), mature 447 aa (SEQ ID NO:70) (protein, listed as Homo sapiens)
chain 1: MGVLKFKHIFFRSFVKSSGVSQIVFTFLLIPCCLTLNFRAPPVIPNVPFLWAWNAPSEFCLGKFDEPLDMSLFSFIGSPRINATGQGVTIFYVDRLGYYPYIDSITGVTVNGGIPQKISLQDHLDKAKKDITFYMPVDNLGMAVIDWEEWRPTWARNWKPKDVYKNRSIELVQQQNVQLSLTEATEKAKQEFEKAGKDFLVETIKLGKLLRPNHLWGYYLFPDCYNHHYKKPGYNGSCFNVEIKRNDDLSWLWNESTALYPSIYLNTQQSPVAATLYVRNRVREAIRVSKIPDAKSPLPVFAYTRIVFTDQVLKFLSQDELVYTFGETVALGASGIVIWGTLSIMRSMKSCLLLDNYMETILNPYIINVTLAAKMCSQVLCQEQGVCIRKNWNSSDYLHLNPDNFAIQLEKGGKFTVRGKPTLEDLEQFSEKFYCSCYSTLSCKEKADVKDTDAVDVCIADGVCIDAFLKPPMETEEPQIFY
chain 2: LNFRAPPVIPNVPFLWAWNAPSEFCLGKFDEPLDMSLFSFIGSPRINATGQGVTIFYVDRLGYYPYIDSITGVTVNGGIPQKISLQDHLDKAKKDITFYMPVDNLGMAVIDWEEWRPTWARNWKPKDVYKNRSIELVQQQNVQLSLTEATEKAKQEFEKAGKDFLVETIKLGKLLRPNHLWGYYLFPDCYNHHYKKPGYNGSCFNVEIKRNDDLSWLWNESTALYPSIYLNTQQSPVAATLYVRNRVREAIRVSKIPDAKSPLPVFAYTRIVFTDQVLKFLSQDELVYTFGETVALGASGIVIWGTLSIMRSMKSCLLLDNYMETILNPYIINVTLAAKMCSQVLCQEQGVCIRKNWNSSDYLHLNPDNFAIQLEKGGKFTVRGKPTLEDLEQFSEKFYCSCYSTLSCKEKADVKDTDAVDVCIADGVCIDAFLKPPMETEEPQIFY
modifications: HuPH20 precursor 1-482; Mature HuPH20 36-482
Protein Expression: YES

B6: SPAM1-YNAS: C-terminally truncated human PH20, precursor 485 aa (SEQ ID NO:15), mature 450 aa (SEQ ID NO:67) (protein, listed as Homo sapiens)
chain: LNFRAPPVIPNVPFLWAWNAPSEFCLGKFDEPLDMSLFSFIGSPRINATGQGVTIFYVDRLGYYPYIDSITGVTVNGGIPQKISLQDHLDKAKKDITFYMPVDNLGMAVIDWEEWRPTWARNWKPKDVYKNRSIELVQQQNVQLSLTEATEKAKQEFEKAGKDFLVETIKLGKLLRPNHLWGYYLFPDCYNHHYKKPGYNGSCFNVEIKRNDDLSWLWNESTALYPSIYLNTQQSPVAATLYVRNRVREAIRVSKIPDAKSPLPVFAYTRIVFTDQVLKFLSQDELVYTFGETVALGASGIVIWGTLSIMRSMKSCLLLDNYMETILNPYIINVTLAAKMCSQVLCQEQGVCIRKNWNSSDYLHLNPDNFAIQLEKGGKFTVRGKPTLEDLEQFSEKFYCSCYSTLSCKEKADVKDTDAVDVCIADGVCIDAFLKPPMETEEPQIFYNAS
modifications: mature HuPH20 36-485
Protein Expression: YES
